For one molecule, binding results are on record in patent US20220153851A1.

Sequences of proteins named here, by UniProt entry; tags and fusion partners are left off. A change or cut given only in a name is not applied to a line headed by its entry.
UniProt P07333: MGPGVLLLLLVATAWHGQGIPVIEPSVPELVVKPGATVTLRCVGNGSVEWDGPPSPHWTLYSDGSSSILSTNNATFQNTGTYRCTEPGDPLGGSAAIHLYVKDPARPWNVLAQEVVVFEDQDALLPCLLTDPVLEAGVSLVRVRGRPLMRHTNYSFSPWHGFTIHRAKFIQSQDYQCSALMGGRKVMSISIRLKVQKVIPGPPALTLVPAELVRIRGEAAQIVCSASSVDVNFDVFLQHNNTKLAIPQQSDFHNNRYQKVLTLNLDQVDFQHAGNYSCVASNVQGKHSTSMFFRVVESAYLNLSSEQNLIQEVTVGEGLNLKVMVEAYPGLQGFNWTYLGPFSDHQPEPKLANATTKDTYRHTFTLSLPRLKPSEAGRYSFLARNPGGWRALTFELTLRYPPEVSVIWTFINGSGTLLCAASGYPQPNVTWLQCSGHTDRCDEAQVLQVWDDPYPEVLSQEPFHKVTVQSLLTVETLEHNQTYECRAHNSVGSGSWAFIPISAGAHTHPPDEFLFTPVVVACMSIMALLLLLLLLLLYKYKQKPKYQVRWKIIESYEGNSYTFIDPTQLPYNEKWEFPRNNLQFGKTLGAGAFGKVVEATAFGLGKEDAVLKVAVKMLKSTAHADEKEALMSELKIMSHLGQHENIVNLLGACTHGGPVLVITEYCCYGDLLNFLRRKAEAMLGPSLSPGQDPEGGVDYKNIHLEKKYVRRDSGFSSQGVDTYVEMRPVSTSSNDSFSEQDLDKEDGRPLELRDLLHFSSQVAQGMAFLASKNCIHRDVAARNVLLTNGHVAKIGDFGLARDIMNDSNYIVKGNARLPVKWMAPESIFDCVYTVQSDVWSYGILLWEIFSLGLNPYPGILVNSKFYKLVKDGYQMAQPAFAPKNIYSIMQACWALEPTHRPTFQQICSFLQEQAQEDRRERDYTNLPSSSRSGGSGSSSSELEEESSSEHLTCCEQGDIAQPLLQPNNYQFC

These are yes or no findings as the source states them, for the method shown. Some binding calls cover weakened binding; strength is not graded here.

The assay has as its target human CSF1R on CSF1R (SEQ ID NO: 2)-transfected CHO cells (human) (UniProt P07333). In words: binding to CSF1R on the surface of cells; cells and method not named, data not shown.

B1: h0311-L0H1 (antibody, human IgG4 S228P, kappa, V domains shown)
VH: QVQLVQSGAEVKKPGSSVKVSCKASGYIFTDYNMHWVRQAPGQGLEWMGEINPNNGVVVYNQKFKGRVTITVDKSTSTAYMELSSLRSEDTAVYYCTRALYHSNFGWYFDSWGQGTLVTVSS
VL: EIVLTQSPATLSLSPGERATLSCKASQSVDYDGDSHMNWYQQKPGQAPRLLIYTASNLESGIPARFSGSGSGTDFTLTISSLEPEDFAVYYCQQGNEDPWTFGQGTKVEIKR
For the molecule B1, the binding entry is on record as “binds”.
